Experimental data from the supplement of paper PMC3741180, “A Novel High Throughput Biochemical Assay to Evaluate the HuR Protein-RNA Complex Formation” (PLoS ONE, 2013).
± gives the standard deviation of the averaged measurements. Some of the results follow. Most values lie within the scatter of the assay; repeated measurements hardly agree.

Chains of the proteins cited; added tags and fusions are not shown.
UniProt Q15717, whole entry: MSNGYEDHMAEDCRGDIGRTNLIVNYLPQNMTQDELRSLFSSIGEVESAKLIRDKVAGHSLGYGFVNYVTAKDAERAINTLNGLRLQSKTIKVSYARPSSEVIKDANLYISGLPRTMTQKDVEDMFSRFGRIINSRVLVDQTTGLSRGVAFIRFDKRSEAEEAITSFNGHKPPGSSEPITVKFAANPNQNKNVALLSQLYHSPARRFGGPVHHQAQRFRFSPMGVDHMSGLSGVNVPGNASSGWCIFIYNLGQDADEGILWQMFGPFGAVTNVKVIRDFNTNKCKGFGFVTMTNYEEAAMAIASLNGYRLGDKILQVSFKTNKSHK

Target: HuR (ELAVL1) - TNFalpha ARE RNA complex (UniProt Q15717)
Assay: AlphaScreen HuR-RNA complex signal Z-score relative to positive (Bi-TNF, DMSO) controls (Z-score (SD units of positive control)); higher = more complex signal
Conditions: screen stage: primary screen; compound concentration: 25 nM

Q: With `CCOc1ccc(C(=O)c2ccc(OC)c(O)c2O)cc1` as the compound, how does the “AlphaScreen HuR-RNA complex signal Z-score” value read?
A: The value was 1.95.

Q: For `CCCCC1=NC2(CCCC2)C(=O)N1Cc1ccc(-c2ccccc2-c2nnn[nH]2)cc1`, which “AlphaScreen HuR-RNA complex signal Z-score” value is on record?
A: Its value is 0.23.

Q: Which “AlphaScreen HuR-RNA complex signal Z-score” value does the source give for `CCCCOC(=O)c1ccc(N)cc1` here?
A: Its value is -0.892.

Q: How did the “AlphaScreen HuR-RNA complex signal Z-score” value turn out when `O=C(Nc1ccc(C(=O)O)c(O)c1)c1ccccc1` was run?
A: Its value is 0.406.

Q: How did the “AlphaScreen HuR-RNA complex signal Z-score” value turn out when `CCC(CCC(C)C1CCC2C3CCC4CC(O)CCC4(C)C3CCC12C)C(C)C` (stereo unspecified) was run?
A: The value was 2.53.

Q: For `NC(=O)c1ncn([C@@H]2O[C@H](CO)[C@@H](O)[C@H]2O)n1`, which “AlphaScreen HuR-RNA complex signal Z-score” value is on record?
A: The value was 1.32.

Q: For `CC1=CC2C(C(C)C)CCC(C)(O)C2CC1` (stereo unspecified), which “AlphaScreen HuR-RNA complex signal Z-score” value is on record?
A: The value was 2.04.

Q: How did the “AlphaScreen HuR-RNA complex signal Z-score” value turn out when `C=NC(C(=O)NC1C(=O)N2C1SC(C)(C)C2C(=O)O)c1ccccc1` (stereo unspecified) was run?
A: The value was 2.69.

Q: Which “AlphaScreen HuR-RNA complex signal Z-score” value does the source give for `NS(=O)(=O)c1cc2c(cc1Cl)N=CNS2(=O)=O` here?
A: Its value is -3.57.

Q: Which “AlphaScreen HuR-RNA complex signal Z-score” value does the source give for `CNS(=O)(=O)Cc1ccc2[nH]cc(CCN(C)C)c2c1` here?
A: The value was -1.98.

Q: With `O=c1c(O)c(-c2ccc(O)c(O)c2)oc2cc(O)ccc12` as the compound, how does the “AlphaScreen HuR-RNA complex signal Z-score” value read?
A: The value was 0.31.

Q: `C[C@H](N)C(=O)NC(Cc1ccccc1)C(=O)O` (mixture of isomers) was tested. Which “AlphaScreen HuR-RNA complex signal Z-score” value did it give?
A: The value was 1.74.

Q: `CN[C@H](CC(C)C)C(=O)N[C@H]1C(=O)N[C@@H](CC(N)=O)C(=O)N[C@H]2C(=O)N[C@H]3C(=O)N[C@H](C(=O)N[C@H](C(=O)O)c4cc(O)cc(O)c4-c4cc3ccc4O)[C@H](O)c3ccc(c(Cl)c3)Oc3cc2cc(c3O[C@@H]2O[C@H](CO)[C@@H](O)[C@H](O)[C@H]2O[C@H]2C[C@](C)(N)[C@H](O)[C@H](C)O2)Oc2ccc(cc2Cl)[C@H]1O` was tested. Which “AlphaScreen HuR-RNA complex signal Z-score” value did it give?
A: Its value is -1.41.

Q: For `Cc1cc(C2CCCCC2)n(O)c(=O)c1`, which “AlphaScreen HuR-RNA complex signal Z-score” value is on record?
A: Its value is -3.47.

Q: For `CC(C)(N=NC(C)(C)C(=N)N)C(=N)N`, which “AlphaScreen HuR-RNA complex signal Z-score” value is on record?
A: Its value is 2.06.

Q: For `O=C(O)c1cc2cc(Cl)ccc2[nH]1`, which “AlphaScreen HuR-RNA complex signal Z-score” value is on record?
A: The value was 2.06.

Q: `CC(=O)CC(=O)CCC(=O)O` was tested. Which “AlphaScreen HuR-RNA complex signal Z-score” value did it give?
A: The value was 2.76.

Q: How did the “AlphaScreen HuR-RNA complex signal Z-score” value turn out when `O=C(O)c1cc(=O)c2ccccc2o1` was run?
A: The value was 2.36.

Q: `COc1ccc2oc(-c3ccccc3)c(OC)c(=O)c2c1` was tested. Which “AlphaScreen HuR-RNA complex signal Z-score” value did it give?
A: The value was 0.585.

Q: For `COc1ccc2ccc(=O)oc2c1`, which “AlphaScreen HuR-RNA complex signal Z-score” value is on record?
A: The value was 1.58.

Q: How did the “AlphaScreen HuR-RNA complex signal Z-score” value turn out when `NS(=O)(=O)c1cc(C(=O)O)c(NCc2ccco2)cc1Cl` was run?
A: Its value is -5.92.

Q: For `CC(=O)Oc1cc(C)c2c(c1C(OC(C)=O)OC(C)=O)Oc1c(c(C)c(OC(C)=O)c3c1C(OC(C)=O)OC3=O)OC2=O` (stereo unspecified), which “AlphaScreen HuR-RNA complex signal Z-score” value is on record?
A: Its value is 2.16.

Q: How did the “AlphaScreen HuR-RNA complex signal Z-score” value turn out when `C[C@]12CC[C@H]3C(=CCc4cc(O)ccc43)[C@@H]1CCC2=O` was run?
A: Its value is 1.66.

Q: `C[C@]12C=CC(=O)C=C1CC[C@@H]1[C@@H]2[C@@H](O)C[C@@]2(C)[C@H]1CC[C@]2(O)C(=O)COP(=O)(O)O` was tested. Which “AlphaScreen HuR-RNA complex signal Z-score” value did it give?
A: Its value is 1.56.

Q: `CCCCCC/C=C\CCCCCCCc1cccc(O)c1C(=O)O` was tested. Which “AlphaScreen HuR-RNA complex signal Z-score” value did it give?
A: The value was 1.63.

Q: Which “AlphaScreen HuR-RNA complex signal Z-score” value does the source give for `N=C(N)N` here?
A: Its value is 2.85.

Q: Which “AlphaScreen HuR-RNA complex signal Z-score” value does the source give for `Cc1c(C(N)=O)cc([N+](=O)[O-])cc1[N+](=O)[O-]` here?
A: Its value is 2.3.

Q: Which “AlphaScreen HuR-RNA complex signal Z-score” value does the source give for `C=C[C@H]1CN2CC[C@H]1C[C@@H]2[C@@H](O)c1ccnc2ccc(OC)cc12` here?
A: The value was 5.21.

Q: `Cc1cccc(C)c1NC(=O)C1CCCCN1C` (stereo unspecified) was tested. Which “AlphaScreen HuR-RNA complex signal Z-score” value did it give?
A: The value was 1.11.

Q: For `COc1ccc(C2C(=O)c3ccccc3C2=O)cc1`, which “AlphaScreen HuR-RNA complex signal Z-score” value is on record?
A: The value was -0.215.

Q: Which “AlphaScreen HuR-RNA complex signal Z-score” value does the source give for `CN(C)c1ccc2nc3ccc(=[N+](C)C)cc-3sc2c1` here?
A: Its value is 1.02.

Q: How did the “AlphaScreen HuR-RNA complex signal Z-score” value turn out when `COc1cc(/C=C/C(=O)N2CCC=CC2=O)cc(OC)c1OC` was run?
A: Its value is -0.537.

Q: Which “AlphaScreen HuR-RNA complex signal Z-score” value does the source give for `COc1cc(OC)c2c(OC)c(-c3ccc4c(c3)OCO4)c(=O)oc2c1` here?
A: The value was 1.03.

Q: How did the “AlphaScreen HuR-RNA complex signal Z-score” value turn out when `CN1C(C(=O)Nc2ccccn2)=C(O)c2sccc2S1(=O)=O` was run?
A: The value was 1.34.

Q: Which “AlphaScreen HuR-RNA complex signal Z-score” value does the source give for `Cc1ncc([N+](=O)[O-])n1CC(O)CCl` (stereo unspecified) here?
A: Its value is 0.113.

Q: For `CC(=O)Oc1ccc2c(c1)CC[C@@H]1[C@@H]2CC[C@]2(C)[C@@H](OC(C)=O)CC[C@@H]12`, which “AlphaScreen HuR-RNA complex signal Z-score” value is on record?
A: Its value is 2.13.

Q: With `CCC(=O)OC1[C@@H]2CC3=C4CC(=O)O[C@@H](c5ccoc5)[C@]4(C)CCC3[C@@](C)(C2=O)[C@@H](CC(=O)OC)C1(C)C` (stereo partly specified) as the compound, how does the “AlphaScreen HuR-RNA complex signal Z-score” value read?
A: The value was 0.872.

Q: For `COC(=O)C[C@H]1C(C)(C)C(=O)[C@@H]2CC3=C(CC[C@]4(C)C3=CC(=O)O[C@H]4c3ccoc3)[C@@]1(C)C2=O`, which “AlphaScreen HuR-RNA complex signal Z-score” value is on record?
A: Its value is -4.9.

Q: Which “AlphaScreen HuR-RNA complex signal Z-score” value does the source give for `O=C(Nc1ccccc1)c1ccccc1O` here?
A: The value was 0.312.

Q: For `C=C1C(=O)[C@]23[C@H](CC[C@@H]1[C@@H]2O)[C@]12CO[C@@]3(O)[C@H](O)[C@H]1C(C)(C)CC[C@@H]2O`, which “AlphaScreen HuR-RNA complex signal Z-score” value is on record?
A: The value was 1.44.

Q: How did the “AlphaScreen HuR-RNA complex signal Z-score” value turn out when `COc1cc(O)cc(O)c1C(C)=O` was run?
A: The value was 0.173.

Q: How did the “AlphaScreen HuR-RNA complex signal Z-score” value turn out when `CS(=O)(=O)c1ccc(C2=C(c3ccccc3)C(=O)OC2)cc1` was run?
A: The value was 1.62.

Q: For `COc1ccc2c(c1OC)OC[C@@H](c1ccc(OC)c(OC)c1OC)C2`, which “AlphaScreen HuR-RNA complex signal Z-score” value is on record?
A: Its value is 2.2.

Q: Which “AlphaScreen HuR-RNA complex signal Z-score” value does the source give for `CN(C)CCC=C1c2ccccc2CCc2ccccc21` here?
A: Its value is 0.0119.

Q: How did the “AlphaScreen HuR-RNA complex signal Z-score” value turn out when `COc1cc(Cc2cnc(N)nc2N)cc(OC)c1OC` was run?
A: The value was -1.07.

Q: With `C=CCc1ccc(OC(=O)c2ccccc2)c(OC)c1` as the compound, how does the “AlphaScreen HuR-RNA complex signal Z-score” value read?
A: Its value is 3.03.

Q: How did the “AlphaScreen HuR-RNA complex signal Z-score” value turn out when `COCC1=C(C(=O)OC(C)OC(=O)OC(C)C)N2C(=O)[C@@H](NC(=O)/C(=N\OC)c3csc(N)n3)[C@H]2SC1` (stereo partly specified) was run?
A: The value was 1.32.

Q: With `CCN(CC)CCOC(=O)C(c1ccccc1)C1CCCCC1` (stereo unspecified) as the compound, how does the “AlphaScreen HuR-RNA complex signal Z-score” value read?
A: Its value is 4.13.

Q: `CC(C)CCCC(C)C1CCC2C3CCC4CCCCC4(C)C3CCC12C` (stereo unspecified) was tested. Which “AlphaScreen HuR-RNA complex signal Z-score” value did it give?
A: Its value is 0.289.

Q: `COc1cc2c(cc1OC)C(=O)C(CC1CCN(Cc3ccccc3)CC1)C2` (stereo unspecified) was tested. Which “AlphaScreen HuR-RNA complex signal Z-score” value did it give?
A: Its value is -1.4.

Q: `O=C(CCCN1CCC(O)(c2ccc(Br)cc2)CC1)c1ccc(F)cc1` was tested. Which “AlphaScreen HuR-RNA complex signal Z-score” value did it give?
A: Its value is 1.62.

Q: Which “AlphaScreen HuR-RNA complex signal Z-score” value does the source give for `CNCC[C@H](Oc1cccc2ccccc12)c1cccs1` here?
A: The value was -0.986.

Q: How did the “AlphaScreen HuR-RNA complex signal Z-score” value turn out when `CC1CCC(C(C)C)C(O)C1` (stereo unspecified) was run?
A: Its value is 1.27.

Q: With `CO[C@@]1(NC(=O)Cc2cccs2)C(=O)N2C(C(=O)O)=C(COC(N)=O)CS[C@@H]21` as the compound, how does the “AlphaScreen HuR-RNA complex signal Z-score” value read?
A: Its value is 1.93.

Q: For `CN1CCC(=C2c3ccccc3CC(=O)c3sccc32)CC1`, which “AlphaScreen HuR-RNA complex signal Z-score” value is on record?
A: The value was -0.277.

Q: For `CC[C@H](CC[C@@H](C)[C@H]1CC[C@H]2[C@@H]3CC=C4C[C@@H](O)CC[C@]4(C)[C@H]3CC[C@]12C)C(C)C` [beta-SITOSTEROL], which “AlphaScreen HuR-RNA complex signal Z-score” value is on record?
A: The value was 2.17.

Q: How did the “AlphaScreen HuR-RNA complex signal Z-score” value turn out when `O=c1ccc2ccccc2[nH]1` was run?
A: Its value is 3.01.

Q: With `CCCCC[C@H](CC(=O)O)C(=O)O` as the compound, how does the “AlphaScreen HuR-RNA complex signal Z-score” value read?
A: The value was 2.81.

Q: For `CCCN(CCC)C(=O)C(CCC(=O)O)NC(=O)c1ccccc1` (stereo unspecified), which “AlphaScreen HuR-RNA complex signal Z-score” value is on record?
A: Its value is 0.682.

Q: How did the “AlphaScreen HuR-RNA complex signal Z-score” value turn out when `O=c1ccc2ccc(O)c(O)c2o1` was run?
A: The value was 2.21.

Q: How did the “AlphaScreen HuR-RNA complex signal Z-score” value turn out when `O.O.O.O.O=C([O-])CC(O)(CC(=O)[O-])C(=O)[O-].[Li+].[Li+].[Li+]` was run?
A: The value was 2.16.

Q: For `O=C[C@H](O)[C@H](O)CO`, which “AlphaScreen HuR-RNA complex signal Z-score” value is on record?
A: Its value is 1.16.

Q: Which “AlphaScreen HuR-RNA complex signal Z-score” value does the source give for `N[C@@H](CCC(=O)N[C@@H](CCSC(CC(=O)O)C(=O)O)C(=O)NCC(=O)O)C(=O)O` (stereo partly specified) here?
A: The value was 2.2.

Q: For `COc1cc(-c2coc3cc(OC)c(OC)c(OC)c3c2=O)cc(OC)c1OC`, which “AlphaScreen HuR-RNA complex signal Z-score” value is on record?
A: Its value is 3.07.

Q: `C[C@]12CCC3c4ccc(OC(=O)c5ccccc5)cc4CCC3C1CCC2=O` (stereo partly specified) was tested. Which “AlphaScreen HuR-RNA complex signal Z-score” value did it give?
A: Its value is 3.22.

Q: For `Cn1ccnc1S`, which “AlphaScreen HuR-RNA complex signal Z-score” value is on record?
A: The value was 1.43 ± 0.97.
